Measured values: PubChem BioAssay AID1347076 (National Center for Advancing Translational Sciences (NCATS), 2019)
The whole screen tested about 400,000 compounds, of which about 13,000 (3.2%) were called active. The shares of active, inactive and inconclusive entries below differ from those in the screen. Calls come from the whole dose curve; as a rule, active = well fitted cell-killing curve with a large enough effect; inconclusive = small, poorly fitted or top-dose-only effect, or effect the other way; inactive = flat fitted curve, though single readings scatter. Potencies beside an inconclusive call are fits to weak or partial responses and may not hold up.

Test: qHTS assay for MDR1-selective chemotherapeutics: Primary screen using the drug-selected MDR subline cells KB-V1; note: nearly all actives have a fitted effect of over 60% in size
Settings: KB-V1 MDR cells viability, CellTiter-Glo, 72 h; activity change, negative = cytotoxicity: at 46.1 µM (top of the series)
Outline: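 KB-V1, DMEM (no phenol red) + 10% FBS; cpd pin-transferred, titration series; 72 h, 37 degrees C; CellTiter-Glo, luminescence. Data normalized, curve-fit.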
% is set by controls: 0 for no effect and ±100 for the full control effect; potency is the fitted concentration of half-maximal effect.

SMILES	Potency	activity change, negative = cytotoxicity
CCNS(=O)(=O)c1ccc(C(=O)OCC(=O)N2CCCc3ccccc32)cc1	inconclusive: 29.1 µM [rising, single point]	
CCCCCC(O)c1cccc(OCc2ccc3ccccc3n2)c1 (centres undefined)	inconclusive: 20.6 µM [cytotoxic, single point]	
O=C(Nc1ccc(Br)cn1)c1cccc2c1-c1ccccc1C2=O	inconclusive: 32.6 µM [cytotoxic, single point]	
O=C(NNC(=O)C12CC3CC(CC(C3)C1)C2)c1ccco1	inconclusive: 29.1 µM [rising, single point]	
N[C@@H](Cc1ccccc1)C(=O)N1CCC(C(=O)N[C@@H](CCC(=O)O)C(=O)O)CC1		inactive: 4.83%
CC(=O)c1cccc(NC(=O)N2CCC(NC(=O)C34CC5CC(CC(C5)C3)C4)CC2)c1	inconclusive: 18.4 µM [cytotoxic, single point]	
Cc1nnc2ccc(-c3cccc(NC(=O)c4ccc(Br)o4)c3)nn12	inconclusive: 25.9 µM [cytotoxic, partial curve, poor fit]	
Cc1ccc(S(=O)(=O)N2CCN(C(=O)n3ccnc3)CC2)cc1		inactive: -3.73%
O=C(NC(=S)NNC(=O)c1cccs1)c1ccco1	inconclusive: 20.6 µM [cytotoxic, partial curve]	
N#CC(=C1C=CC(=NO)C(Cl)=C1)c1ccc(Cl)cc1	inconclusive: 20.6 µM [cytotoxic, single point]	
Cc1noc(C)c1COC(=O)COc1ccc(C#N)cc1	inconclusive: 18.4 µM [rising, single point]	
COc1cc(NS(=O)(=O)c2cc(NC(C)=O)ccc2OC)c(OC)cc1NC(=O)c1ccccc1		inactive: -14.6%
CN(CC(=O)Nc1ccccc1Cl)CC(=O)Nc1ccccc1[N+](=O)[O-]	inconclusive: 20.6 µM [cytotoxic, partial curve]	
CCCn1c(N)c(N(CCOC)C(=O)c2cc(-c3ccco3)nc3ccccc23)c(=O)[nH]c1=O	inconclusive: 29.1 µM [rising, single point]	
COc1cc2ccccc2cc1C(=O)Nc1ccccc1N1CCN(S(C)(=O)=O)CC1	active: 4.11 µM	
C=CCn1nnc2sc3c(c2c1=O)CCC(C)C3 (centres undefined)	inconclusive: 29.1 µM [cytotoxic, single point]	
COCCCNC(NC(=O)c1ccc(C)cc1)C(Cl)(Cl)Cl (centres undefined)	active: 20.6 µM	
CC1CC(C)CN(S(=O)(=O)c2ccc(C(=O)NCCCn3ccnc3)cc2)C1 (centres undefined)	inconclusive: 29.1 µM [rising, single point]	
O=C(O)c1ccc(NS(=O)(=O)c2ccc3nnn(O)c3c2)cc1	inconclusive: 29.1 µM [rising, single point]	

Part of the list above, in markdown.

| SMILES | Potency | activity change, negative = cytotoxicity |
| --- | --- | --- |
| O=C(NC(=S)NNC(=O)c1cccs1)c1ccco1 | inconclusive: 20.6 µM [cytotoxic, partial curve] |  |
| N#CC(=C1C=CC(=NO)C(Cl)=C1)c1ccc(Cl)cc1 | inconclusive: 20.6 µM [cytotoxic, single point] |  |
